No constants are given. Whether binding was seen depends on the method and setting. Binding seen in cells or lysates may run through a third protein. Some entries that bind do so weakly or less than the wild type.

Protein sequences, listed by entry. Tags and fused reporters are not part of them. Residues count along the entry.
UniProt Q9NNX6: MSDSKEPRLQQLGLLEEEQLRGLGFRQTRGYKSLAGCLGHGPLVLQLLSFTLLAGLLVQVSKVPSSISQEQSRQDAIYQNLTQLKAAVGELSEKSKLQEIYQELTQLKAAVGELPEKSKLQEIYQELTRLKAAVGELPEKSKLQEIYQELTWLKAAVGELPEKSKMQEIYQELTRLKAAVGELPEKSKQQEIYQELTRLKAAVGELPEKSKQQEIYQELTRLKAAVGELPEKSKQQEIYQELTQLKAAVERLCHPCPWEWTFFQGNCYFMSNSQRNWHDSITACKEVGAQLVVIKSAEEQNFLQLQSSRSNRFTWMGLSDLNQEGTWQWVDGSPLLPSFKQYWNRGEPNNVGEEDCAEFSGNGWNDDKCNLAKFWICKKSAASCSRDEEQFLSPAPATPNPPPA
UniProt O00206, residues 24-839: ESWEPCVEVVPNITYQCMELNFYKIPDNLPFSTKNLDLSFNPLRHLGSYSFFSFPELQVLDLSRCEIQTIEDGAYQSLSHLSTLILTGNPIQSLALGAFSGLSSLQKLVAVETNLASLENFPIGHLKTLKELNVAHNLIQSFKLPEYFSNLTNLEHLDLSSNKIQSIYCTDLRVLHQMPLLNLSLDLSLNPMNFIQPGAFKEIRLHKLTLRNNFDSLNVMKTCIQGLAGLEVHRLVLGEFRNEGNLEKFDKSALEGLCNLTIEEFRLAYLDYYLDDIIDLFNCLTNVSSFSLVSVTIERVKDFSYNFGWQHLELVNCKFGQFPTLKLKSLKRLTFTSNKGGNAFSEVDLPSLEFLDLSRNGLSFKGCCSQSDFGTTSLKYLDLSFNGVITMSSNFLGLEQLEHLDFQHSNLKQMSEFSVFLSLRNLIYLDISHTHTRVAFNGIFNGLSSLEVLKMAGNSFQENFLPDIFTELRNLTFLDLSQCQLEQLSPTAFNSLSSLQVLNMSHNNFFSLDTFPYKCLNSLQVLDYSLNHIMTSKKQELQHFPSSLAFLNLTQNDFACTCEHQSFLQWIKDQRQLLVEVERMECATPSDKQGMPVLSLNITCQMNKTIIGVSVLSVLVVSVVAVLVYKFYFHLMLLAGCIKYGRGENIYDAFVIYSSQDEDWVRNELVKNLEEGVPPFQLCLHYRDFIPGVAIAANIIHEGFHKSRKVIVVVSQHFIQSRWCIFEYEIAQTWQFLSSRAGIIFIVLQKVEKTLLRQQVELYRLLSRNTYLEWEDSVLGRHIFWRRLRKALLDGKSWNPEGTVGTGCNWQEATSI

Drawing on article PMC5468253, this text covers binding for two substances.

Assay [1] concerns the target dendritic cell-specific intercellular adhesion molecule-3-grabbing non-integrin (DC-SIGN) (human (endogenous in primary monocyte-derived macrophages)) (UniProt Q9NNX6). Briefly: co-IP; lysates of human primary macrophages incubated with oxLDL (0, 12.5, 25 and 50 μg/ml) for 6 hours; immunoprecipitated with a DC-SIGN antibody (Pierce Crosslink Immunoprecipitation Kit), blotted for TLR4.

Another assay concerns the target FLAG-DC-SIGN (human) (UniProt Q9NNX6). Briefly: pull-down; FLAG-DC-SIGN from HEK293 lysate (10 μg) adsorbed onto anti-FLAG M2 beads, washed six times, incubated overnight at 4 °C with His-TLR4 HEK293 lysate (10 μg) in 140 mM NaCl, 10 mM Na2HPO4, 1.8 mM KH2PO4, pH 7.5; eluted with FLAG peptide; immunoblot; only the target purified. Background: A western blot detects proteins with antibodies after separation by electrophoresis.

“Toll-like receptor 4 (TLR4) (from UniProt O00206 24-839)”: the binding result in assay [1] was “binds”.

As for “His-TLR4 (from UniProt O00206 24-839) (receptor)”, the binding entry with FLAG-DC-SIGN (human) is recorded as “binds”.
